## Results of single-concentration screens

Sequences of proteins named here, by UniProt entry; tags and fusion partners are left off.
UniProt P9WFT3, whole entry: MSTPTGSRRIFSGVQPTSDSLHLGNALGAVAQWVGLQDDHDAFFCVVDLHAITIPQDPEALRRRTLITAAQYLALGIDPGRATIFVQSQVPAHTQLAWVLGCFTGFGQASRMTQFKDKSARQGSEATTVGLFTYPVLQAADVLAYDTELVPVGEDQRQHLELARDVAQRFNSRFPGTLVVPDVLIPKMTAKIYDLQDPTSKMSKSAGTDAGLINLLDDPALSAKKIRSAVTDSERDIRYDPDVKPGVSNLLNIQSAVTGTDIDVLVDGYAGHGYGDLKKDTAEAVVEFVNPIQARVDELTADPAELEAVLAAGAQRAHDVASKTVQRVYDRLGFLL
UniProt P9WNZ1, whole entry: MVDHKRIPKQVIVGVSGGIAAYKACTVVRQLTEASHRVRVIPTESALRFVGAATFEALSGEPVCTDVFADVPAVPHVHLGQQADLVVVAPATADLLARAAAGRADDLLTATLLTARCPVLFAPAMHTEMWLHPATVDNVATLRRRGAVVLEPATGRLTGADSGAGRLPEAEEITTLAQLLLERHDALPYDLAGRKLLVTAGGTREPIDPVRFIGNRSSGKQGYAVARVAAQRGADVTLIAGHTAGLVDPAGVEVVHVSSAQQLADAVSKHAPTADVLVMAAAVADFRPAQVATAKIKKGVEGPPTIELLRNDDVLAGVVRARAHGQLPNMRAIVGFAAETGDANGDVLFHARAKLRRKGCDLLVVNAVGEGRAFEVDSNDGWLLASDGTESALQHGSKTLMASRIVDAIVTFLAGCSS

Results are given as percent effect. How 0% and 100% were set is not recorded. Most values in the screen are low, and negative values occur. This is an unselected part of the compounds tested.

MtTrpRS: 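Tryptophan-tRNA ligase, Mycobacterium tuberculosis (UniProt P9WFT3). Enzyme assay of tryptophanyl-tRNA synthetase; the read-out is not stated. Compounds at 10 µM. Direction is not recorded; retested compounds ran higher, which suggests that high means inhibition. Size under these conditions: about 65,000 compounds, about 64 of them at 50% or above in at least one test.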
CoaBC: 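Enzyme assay of CoaBC with a phosphate dye (Biomol Green) read at 650 nm. Target: Coenzyme A biosynthesis protein CoaBC, Mycobacterium tuberculosis (UniProt P9WNZ1). Concentration: 30 µM. Direction is inferred from only a few compounds that gave an IC50; most scored high, so higher reads as stronger inhibition. Most strong results did not repeat in a second test. Of about 67,000 compounds tested this way, about 40 (0.06%) reached 50% or more in at least one test.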

compound: CCS(=O)(=O)CC(=O)N1CCCC(c2noc(C(C)C)n2)C1 (stereo unspecified)
MtTrpRS: -2.882
CoaBC: 3.797

compound: Fc1cccc(-c2nnn3c2COC(CNCc2cccs2)C3)c1 (stereo unspecified)
MtTrpRS: -0.1627
CoaBC: 3.583

compound: CNC(=O)N1C[C@H]2C[C@H](C(=O)Nc3cccnc3)[C@@H](C1)O2
MtTrpRS: -1.876
CoaBC: 3.25

compound: Cc1nc2c(c(N(C)C)n1)CCN(C(=O)CN1CCC(O)CC1)C2
MtTrpRS: 2.91
CoaBC: 2.091

compound: CN(Cc1ccc2nonc2c1)C(=O)CCc1cc2n(n1)CCCNC2
MtTrpRS: 2.477
CoaBC: -5.466

compound: Cc1cc(CNC(=O)N2CCCN(Cc3ccccc3)CC2)no1
MtTrpRS: -0.236
CoaBC: 4.627

compound: Cc1nn(C)c(C)c1CN(C)c1nc(C2CC2)nc2c(C)nn(C)c12
MtTrpRS: 5.616
CoaBC: 0.9709

compound: CC(=O)N(C)c1nc(Cn2nnnc2C2CCCC2)cs1
MtTrpRS: 3.888
CoaBC: -3.641

compound: Cc1ccc(CNC(=O)c2cc(NC(=O)C3CC3)n(C)n2)o1
MtTrpRS: 3.627
CoaBC: 0.4619

compound: Cc1nncn1CCNC(=O)C(C)(C)c1cccc(F)c1
MtTrpRS: -1.816
CoaBC: 4.839

compound: CN(CCc1ccccn1)C(=O)C(O)c1ccc(Br)cc1 (stereo unspecified)
MtTrpRS: 5.167
CoaBC: 3.165

compound: c1ccc(O[C@@H]2CN(Cc3nccs3)[C@@H]3CCCO[C@@H]32)nc1
MtTrpRS: 3.417
CoaBC: -0.9772

compound: CCn1cc(NS(=O)(=O)c2ccc(Br)s2)c(C(=O)NCC(C)C)n1
MtTrpRS: 0.4078
CoaBC: 3.803

compound: CN(CCO)Cc1nnc(C2CCN(C(=O)CN3CCCC3)CC2)n1C
MtTrpRS: -4.446
CoaBC: 6.17

compound: COC(=O)N1CCCN(C(=O)NC2CCc3ccccc3C2)CC1 (stereo unspecified)
MtTrpRS: -3.222
CoaBC: -6.855

compound: Cc1csc(CN(C)CCOc2ccccc2)n1
MtTrpRS: -1.598
CoaBC: 1.683

compound: COCC(=O)N1CC[C@H]2C[C@H](C)O[C@@H]2C1
MtTrpRS: 11.1
CoaBC: 10.36

compound: CNC(=O)C1(CCCc2ccncc2)CCN1 (stereo unspecified)
CoaBC: 3.148

compound: C[C@@H](NCc1cccc(Cl)c1)c1onc(-c2ccccc2)c1C(=O)O
MtTrpRS: -1.297
CoaBC: -1.768

compound: CCc1cc(N2CCC(Nc3ccc4nnc(C)n4n3)CC2)ncn1
MtTrpRS: 2.166
CoaBC: 0.6148

compound: Cc1cc(CCC(=O)NCc2ncc[nH]2)ccc1Br
MtTrpRS: 3.524
CoaBC: 8.76

compound: CC(C)Nc1ncnc2c1CCN(C(=O)CC1CCCC1)CC2
MtTrpRS: 7.563
CoaBC: 1.42

compound: CC1c2ncc(CNC(=O)C3CC3)n2CCN1Cc1cnn(C)c1 (stereo unspecified)
MtTrpRS: -4.092
CoaBC: 2.411

compound: Cc1nc(CO[C@H]2CN(Cc3ccccn3)[C@@H]3CCCO[C@H]23)cs1
MtTrpRS: 1.424
CoaBC: 9.13

compound: C=C(C)CN(CC)C(=O)CN1CCCC1C(=O)N(C)C (stereo unspecified)
MtTrpRS: -4.023
CoaBC: -3.071

compound: CN1CCC(c2n[nH]c(=O)n2-c2cccc(Cl)c2)CC1
MtTrpRS: -1.398
CoaBC: 1.104

compound: CNS(=O)(=O)c1ccc(C)c(C(=O)NCCNc2ncccn2)c1
MtTrpRS: -3.359
CoaBC: -5.085

compound: CN1CCOC(CNCc2coc(-c3cccc(F)c3)n2)C1 (stereo unspecified)
MtTrpRS: 18.95
CoaBC: 9.43

compound: CCN1CC(NC(=O)Nc2nc(C)n(C(C)C)n2)CC1=O (stereo unspecified)
MtTrpRS: 11.01
CoaBC: 8.835

compound: Cc1ccc(-n2c(SCC(=O)O)nnc2-c2cccc(C)c2)cc1
CoaBC: -1.363

compound: O=C(O)Cc1cccc(-n2ccnc2-c2ccc(Cl)s2)c1
MtTrpRS: 1.206
CoaBC: 1.737

compound: CC[C@@]1(O)CCN(C(=O)c2ccsc2)C[C@H]1O
MtTrpRS: -1.706
CoaBC: 0.8439

Some entries from above, unchanged:

{"compound": "Cc1ccc(CNC(=O)c2cc(NC(=O)C3CC3)n(C)n2)o1", "MtTrpRS": 3.627, "CoaBC": 0.4619}
{"compound": "COC(=O)N1CCCN(C(=O)NC2CCc3ccccc3C2)CC1", "stereo": "stereo unspecified", "MtTrpRS": -3.222, "CoaBC": -6.855}
{"compound": "CN(Cc1ccc2nonc2c1)C(=O)CCc1cc2n(n1)CCCNC2", "MtTrpRS": 2.477, "CoaBC": -5.466}

Source: ChEMBL document CHEMBL3988442, “University of Dundee, Small-Polar-MMV Screening Library” (2021).